The results are deposited in PubChem (AID1159506; NCATS, 2015).

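Genome-wide siRNA knockdown in TC32 Ewing sarcoma cells, comparing luciferase light from an NR0B1-promoter reporter with a CMV-promoter reporter 48 hours after transfection. Each siRNA was applied at 20 nM. A z-score of the log NR0B1-over-CMV signal, less the median of siRNAs with the same seed; more negative means a stronger specific loss of the NR0B1 reporter.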

The strongest results of the screen are mostly left out here. Sequences are the guide (antisense) strand, without overhang.

| siRNA | gene | seed-corrected z-score |
|---|---|---|
| `UACUGUCUCAGGUGCUAUC` | MALSU1 | -1.278 |
| `UUCGGCUUUGGAAACUUUC` | NKX2-4 | 0.1527 |
| `UGUGAACUAAGGGUAGAGG` | ZNF93 | 0.3464 |
| `UAUGCGACACCCACAGUAG` | UQCRFS1 | 0.7692 |
| `UCAGUGGUGUCAAACGAGG` | SCARF2 | 0.0072 |
| `UUUGUUGUUUAGGUCAAUG` | CALCOCO2 | -0.7456 |
| `UUUCCGGAUAGCUUGAUUG` | PKD1L1 | 0.7913 |
| `UUCGUGACUAACUCGAGGC` | EIF3J-AS1 | -0.3388 |
| `UAUGGGAAUGACUCGUGCC` | PECR | 0.2846 |
| `UGCAGUAGGAUGAUCAGGC` | LSM10 | 0.1373 |
| `UUGUUGUCGAGUUGGAUCC` | SSBP2 | -1.169 |
| `UCUAGACCUAAGUUGGACU` | TGFB3 | 0.282 |
| `UCUCUUGUUAAUUUUAUCC` | TRAM1L1 | 0.01947 |
| `UCAUUGAUCUUGAAGCUGC` | ANTXR1 | 1.029 |
| `UCACCAACCAUCUCAAUCC` | TECPR1 | 0.01244 |
| `UGGUGAAAAAGUCUGACGC` | TIA1 | -0.9562 |
| `AAGGCAUCAAUAGUAACUC` | SUMF1 | 1.032 |
| `AACUUCUCACGCAUCUCUG` | INSL3 | -0.9558 |
| `UGAGCUAUCACGAAGGCUG` | ADAMTS14 | -0.09005 |
| `AAUAAUUGAAGUGUCGUCC` | PAPD5 | 0.1994 |
| `UUAUCUUUAAUCGAUAGAA` | LOC401442 | 0.638 |
| `UUUAGUUGCACCCUUAAUC` | EIF2AK1 | -0.7364 |
| `UCUUGUCCCAGGAUGAUCU` | MPTX1 | -0.3097 |
| `AAUCGAAAACACUGCAUUC` | TMEM64 | -0.06088 |
| `UAUAAAUUCAUGAUCCGUG` | RNF141 | 0.4368 |
| `UCGUUUUGCAAUGCUAGGC` | PPP2R5A | 0.2285 |
| `UUCUGGUUUUAGCAAGUCC` | TUBGCP3 | -1.121 |
| `AAUGUUAUUCCUGUUCCUC` | GCG | 1.707 |
| `UUGUUUUUCGGGUAAUUCU` | CD63 | 0.5578 |
| `UUCCAAGUCACUCACAUCU` | APOF | 0.2593 |
| `UCUUCUGCAAGUAAUAGUU` | UBE2NL | -0.6101 |
| `AUGAGUUCCACGUAUUUCG` | ACE | -0.243 |
| `UGAAUUGUCUCUAUCAAUC` | RNGTT | 0.8956 |
| `UGUUCUUUUAGGCUUCACC` | HMGN5 | -0.4291 |
| `UAGGUGGAUAGUCCCUUGG` | CXCL9 | -0.8228 |
| `UGUAUUUGGAACGUACUGC` | GCC2 | -0.541 |
| `UUCUGUAGCCGUAAUUUCC` | AP1S3 | -0.0398 |
| `UGCUAGAUUAUAUUGAUUC` | UBE2Q2 | 0.1106 |
| `AAGGCUACCACAUAGUUGG` | SLC22A4 | 1.621 |
| `UUAGAGAACUCUUUGAGCU` | PADI4 | -0.6629 |
| `AACUCAUUCAGUUCAGCUU` | RPS3 | 0.8027 |
| `AACCAUAUUUUUAACAGCC` | TTC28 | 0.7697 |
| `UUAAGGUCCAGCUCGAAGU` | PCDHAC2 | -0.4444 |
| `UUACCUGUUGGUACCGCCU` | C11orf86 | 0.008275 |

Once more, the final 4:

siRNA,gene,seed-corrected z-score
AACUCAUUCAGUUCAGCUU,RPS3,0.8027
AACCAUAUUUUUAACAGCC,TTC28,0.7697
UUAAGGUCCAGCUCGAAGU,PCDHAC2,-0.4444
UUACCUGUUGGUACCGCCU,C11orf86,0.008275